Results on 4 molecules are retold here after article PMC2266940.

No constants are given. Whether binding was seen depends on the method and setting. In cells and extracts the contact can be indirect. Some results given as binding are weak or reduced against the parent protein; the word gives no strength.

Assay [1] addresses T1, human SIN3B, endogenous in primary placental cells (human (endogenous in primary placental cells)) (UniProt O75182).
T1 sequence: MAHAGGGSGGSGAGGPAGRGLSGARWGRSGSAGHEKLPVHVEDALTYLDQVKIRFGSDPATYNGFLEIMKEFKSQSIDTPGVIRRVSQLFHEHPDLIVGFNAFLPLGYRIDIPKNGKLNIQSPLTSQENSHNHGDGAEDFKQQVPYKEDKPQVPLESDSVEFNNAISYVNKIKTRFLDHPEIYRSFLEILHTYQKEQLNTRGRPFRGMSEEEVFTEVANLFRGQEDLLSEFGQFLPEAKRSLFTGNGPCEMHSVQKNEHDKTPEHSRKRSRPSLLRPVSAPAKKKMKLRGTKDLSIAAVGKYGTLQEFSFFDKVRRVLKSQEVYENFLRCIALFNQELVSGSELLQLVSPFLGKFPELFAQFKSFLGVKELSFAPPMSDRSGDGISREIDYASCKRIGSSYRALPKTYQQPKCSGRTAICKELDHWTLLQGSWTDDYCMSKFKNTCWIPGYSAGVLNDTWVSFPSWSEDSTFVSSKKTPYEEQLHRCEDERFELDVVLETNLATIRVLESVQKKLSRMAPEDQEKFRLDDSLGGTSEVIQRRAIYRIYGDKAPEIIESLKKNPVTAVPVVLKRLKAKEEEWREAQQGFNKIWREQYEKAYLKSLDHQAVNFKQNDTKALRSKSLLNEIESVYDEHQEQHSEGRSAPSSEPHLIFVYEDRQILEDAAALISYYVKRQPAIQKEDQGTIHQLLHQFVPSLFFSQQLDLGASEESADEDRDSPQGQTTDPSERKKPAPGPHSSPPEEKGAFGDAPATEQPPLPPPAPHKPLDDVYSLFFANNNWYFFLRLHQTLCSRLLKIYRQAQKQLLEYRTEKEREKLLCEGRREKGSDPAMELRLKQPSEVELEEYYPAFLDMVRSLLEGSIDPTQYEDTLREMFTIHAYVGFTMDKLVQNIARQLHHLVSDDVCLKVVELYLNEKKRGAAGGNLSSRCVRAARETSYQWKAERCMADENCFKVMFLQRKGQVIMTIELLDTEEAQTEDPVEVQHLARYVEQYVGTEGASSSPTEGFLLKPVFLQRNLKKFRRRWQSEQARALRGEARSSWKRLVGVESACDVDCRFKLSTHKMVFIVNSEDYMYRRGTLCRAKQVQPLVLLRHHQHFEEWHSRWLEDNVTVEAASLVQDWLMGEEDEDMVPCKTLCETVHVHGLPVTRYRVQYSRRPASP
The assay is described as follows: co-IP; endogenous proteins in nuclear extracts of primary placental cells (420 mM NaCl extract diluted 1:20 in lysis buffer); IP with α-SIN3B or α-MTG, Western with α-SIN3B, α-ETO, α-MTGR1, α-MTG16.

Assay [2] has as its target T2, ETO, endogenous in primary placental cells (human (endogenous in primary placental cells)) (UniProt Q06455).
T2 sequence: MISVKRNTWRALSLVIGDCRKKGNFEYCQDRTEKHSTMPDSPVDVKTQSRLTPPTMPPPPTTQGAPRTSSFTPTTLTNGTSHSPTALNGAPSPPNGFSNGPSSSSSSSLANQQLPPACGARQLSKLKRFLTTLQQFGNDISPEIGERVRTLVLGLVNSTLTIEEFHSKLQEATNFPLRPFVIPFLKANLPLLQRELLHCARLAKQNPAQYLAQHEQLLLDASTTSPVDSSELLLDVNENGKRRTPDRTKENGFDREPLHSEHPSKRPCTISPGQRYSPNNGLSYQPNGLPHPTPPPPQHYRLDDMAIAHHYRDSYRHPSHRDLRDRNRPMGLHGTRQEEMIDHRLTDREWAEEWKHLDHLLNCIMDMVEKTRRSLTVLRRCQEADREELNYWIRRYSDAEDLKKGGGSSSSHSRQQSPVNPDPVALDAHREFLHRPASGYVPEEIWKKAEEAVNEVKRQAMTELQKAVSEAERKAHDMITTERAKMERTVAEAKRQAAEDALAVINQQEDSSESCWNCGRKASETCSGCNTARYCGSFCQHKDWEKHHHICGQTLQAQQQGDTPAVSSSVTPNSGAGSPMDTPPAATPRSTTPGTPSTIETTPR
The assay is described as above.

B1: MTGR1, endogenous in primary placental cells (protein, UniProt O43439 1-604)
chain: MAKESGISLKEIQVLARQWKVGPEKRVPAMPGSPVEVKIQSRSSPPTMPPLPPINPGGPRPVSFTPTALSNGINHSPPTLNGAPSPPQRFSNGPASSTSSALTNQQLPATCGARQLSKLKRFLTTLQQFGNDISPEIGEKVRTLVLALVNSTVTIEEFHCKLQEATNFPLRPFVIPFLKANLPLLQRELLHCARAAKQTPSQYLAQHEHLLLNTSIASPADSSELLMEVHGNGKRPSPERREENSFDRDTIAPEPPAKRVCTISPAPRHSPALTVPLMNPGGQFHPTPPPLQHYTLEDIATSHLYREPNKMLEHREVRDRHHSLGLNGGYQDELVDHRLTEREWADEWKHLDHALNCIMEMVEKTRRSMAVLRRCQESDREELNYWKRRYNENTELRKTGTELVSRQHSPGSADSLSNDSQREFNSRPGTGYVPVEFWKKTEEAVNKVKIQAMSEVQKAVAEAEQKAFEVIATERARMEQTIADVKRQAAEDAFLVINEQEESTENCWNCGRKASETCSGCNIARYCGSFCQHKDWERHHRLCGQNLHGQSPHGQGRPLLPVGRGSSARSADCSVPSPALDKTSATTSRSSTPASVTAIDTNGL
In the case of B1, in assay [1], the binding result is listed as “no binding”.

B2: human SIN3B, endogenous in primary placental cells (protein, UniProt O75182 1-1162)
chain: T1 sequence
As for B2, the binding result in assay [2] was “binds”.

B3: MTG16, endogenous in primary placental cells (protein, UniProt O75081 1-653)
chain: MPASRLRDRAASSASGSTCGSMSQTHPVLESGLLASAGCSAPRGPRKGGPAPVDRKAKASAMPDSPAEVKTQPRSTPPSMPPPPPAASQGATRPPSFTPHTHREDGPATLPHGRFHGCLKWSMVCLLMNGSSHSPTAINGAPCTPNGFSNGPATSSTASLSTQHLPPACGARQLSKLKRFLTTLQQFGSDISPEIGERVRTLVLGLVNSTLTIEEFHSKLQEATNFPLRPFVIPFLKANLPLLQRELLHCARLAKQTPAQYLAQHEQLLLDASASSPIDSSELLLEVNENGKRRTPDRTKENGSDRDPLHPEHLSKRPCTLNPAQRYSPSNGPPQPTPPPHYRLEDIAMAHHFRDAYRHPDPRELRERHRPLVVPGSRQEEVIDHKLTEREWAEEWKHLNNLLNCIMDMVEKTRRSLTVLRRCQEADREELNHWARRYSDAEDTKKGPAPAAARPRSSSAGPEGPQLDVPREFLPRTLTGYVPEDIWRKAEEAVNEVKRQAMSELQKAVSDAERKAHELITTERAKMERALAEAKRQASEDALTVINQQEDSSESCWNCGRKASETCSGCNAARYCGSFCQHRDWEKHHHVCGQSLQGPTAVVADPVPGPPEAAHSLGPSLPVGAASPSEAGSAGPSRPGSPSPPGPLDTVPR
B3: the binding entry in assay [1] is “no binding”.

B4: ETO, endogenous in primary placental cells (protein, UniProt Q06455 1-604)
chain: T2 sequence
In the case of B4, the binding result in assay [1] is recorded as “binds”.
